From the supplement of paper PMC4683952
Counter-ions that a name gives are not always drawn. Out of some 1,200 compounds screened, about 50 (4%) showed activity. Cut-off read from the data, not from the text of the source: all actives reach 1.3 or more but so do some inactives. The list shows a part of the results.

Test system: Lgr5 (MarsCy1-Lgr5-EGFP, U2OS)
Test: cell-surface Lgr5 expression (SCi1 fluorescence, background-subtracted) relative to WT DMSO (fold of DMSO control); higher = more Lgr5 at the plasma membrane, active = hit call of the paper
Conditions: U2OS MarsCy1-Lgr5-EGFP stable; treatment time: overnight; 16 µM; library: Johns Hopkins Clinical Compound Library

cell-surface Lgr5 expression, inactive:
OCCN1C[C@H](O)[C@@H](O)[C@H](O)[C@H]1CO [Miglitol] 0.772
CC(C)C(=O)Nc1ccc([N+](=O)[O-])c(C(F)(F)F)c1 [Flutamide] 1.16
CC1COc2c(N3CCN(C)CC3)c(F)cc3c(=O)c(C(=O)O)cn1c23 (stereo not drawn) [Ofloxacin] 0.845
CC(=O)SCC(Cc1ccccc1)C(=O)NCC(=O)OCc1ccccc1 (stereo not drawn) [Racecadotril] 1.24
COC(=O)C1=C(C)NC(C)=C(C(=O)OC(C)C)C1c1cccc2nonc12 (stereo not drawn) [Isradipine] 1.01
O=c1[nH]cnc2c1ncn2[C@H]1CC[C@@H](CO)O1 [Didanosine (2'-3'-dideoxyinosine)] 0.953
CN(C/C=C/C#CC(C)(C)C)Cc1cccc2ccccc12 [Terbinafine] 0.701
Nc1nc(O)c2ncn(CCC(CO)CO)c2n1 [Penciclovir] 0.791
C[C@H]1COc2c(N3CCN(C)CC3)c(F)cc3c(=O)c(C(=O)O)cn1c23 [Levofloxacin HCl] 0.936
NC(CO)C(=O)NNCc1ccc(O)c(O)c1O (stereo not drawn) [Benserazide] 1.01
NCC[C@H](O)C(=O)N[C@@H]1C[C@H](N)[C@@H](O[C@H]2O[C@H](CN)[C@@H](O)[C@H](O)[C@H]2O)[C@H](O)[C@H]1O[C@H]1O[C@H](CO)[C@@H](O)[C@H](N)[C@H]1O [Amikacin] 0.918
O.O.O.O.O.O.[Br-].[Br-].[Sr+2] [Strontium bromide hexahydrate] 0.469
CCOc1ccc(NC(=O)CC(C)O)cc1 (stereo not drawn) [Bucetin] 1.29
CC(=O)OCC1=C(C(=O)O)N2C(=O)[C@@H](NC(=O)Cc3cccs3)[C@H]2SC1 [Cephalothin] 0.925
CC1(C)S[C@@H]2[C@H](NC(=O)Cc3ccccc3)C(=O)N2[C@H]1C(=O)O [Penicillin g] 0.966
CC1(C)S[C@@H]2[C@H](NC(=O)Cc3ccccc3)C(=O)N2[C@H]1C(=O)O [Penicillin G sodium] 0.968
CC1(C)S[C@@H]2[C@H](NC(=O)Cc3ccccc3)C(=O)N2[C@H]1C(=O)O [Penicillin G potassium (Benzyl penicillin potassium)] 0.951
CC1(C)S[C@@H]2[C@H](NC(=O)Cc3ccccc3)C(=O)N2[C@H]1C(=O)O [Penicillin G (procaine salt)] 0.994
CC1(C)S[C@@H]2[C@H](NC(=O)Cc3ccccc3)C(=O)N2[C@H]1C(=O)O [Penicillin G benzathine] 1.03
CCCCc1nc(Cl)c(CO)n1Cc1ccc(-c2ccccc2-c2nnn[nH]2)cc1 [Losartan] 0.915
C=CCCCCCCCCC(=O)O [Undecylenic acid] 0.836
C[C@H](N)C(=O)N[C@@H](C)P(=O)(O)O [Alfafosfalin (L-alanyl-L-1-aminoethylphosphonic acid)] 1.36
O=C1OC(CN2CCOCC2)CN1/N=C/c1ccc([N+](=O)[O-])o1 (stereo not drawn) [Furaltadone] 1.1
C[n+]1ccccc1C=NO [Pralidoxime (pyridine 2-aldoximemethochloride)] 1.01
C[n+]1ccccc1C=NO [Pralidoxime (2-Pyridinealdoxime methiodide)] 1.11
CNCCCN1c2ccccc2CCc2ccccc21 [Desipramine] 1
O=C1OC(c2ccc(O)cc2)(c2ccc(O[C@@H]3O[C@H](C(=O)O)[C@@H](O)[C@H](O)[C@H]3O)cc2)c2ccccc21 (stereo partly drawn) [Phenolphthalein beta-D-glucuronide sodium salt] 1
CCC(C)n1ncn(-c2ccc(N3CCN(c4ccc(OCC5COC(Cn6cncn6)(c6ccc(Cl)cc6Cl)O5)cc4)CC3)cc2)c1=O (stereo not drawn) [Itraconazole] 0.317
O=C(Nc1ccccc1)c1cc(Cl)ccc1O [5-Chlorosalicylanilide] 1.12
O=C(O)CCC(=O)C(=O)O [α-Ketoglutaric acid] 0.995
C[C@H]1[C@H](OC(=O)CCC(=O)O)O[C@@H]2O[C@@]3(C)CC[C@H]4[C@H](C)CC[C@@H]1[C@@]24OO3 [Artesunate] 0.996
CCCn1cnc2c1c(=O)n(CCCCC(C)=O)c(=O)n2C [Propentofylline] 1.12
O=C(O)CN(CCN(CC(=O)O)CC(=O)O)CCN(CC(=O)O)CC(=O)O [Pentetic acid (Diethylenetriaminepentacetic acid)] 1.04
O=C1/C(=C2\Nc3ccc(S(=O)(=O)O)cc3C2=O)Nc2ccc(S(=O)(=O)O)cc21 [Indigotindisulfonate] 1.17
CCN(CC)Cc1cc(Nc2ccnc3cc(Cl)ccc23)ccc1O [Amodiaquin] 1.47
CCOC(=O)C(=O)OCC [Diethyl oxalate] 1.01
O=C([O-])[O-].[Bi+3].[Bi+3].[O-2].[O-2] [Bismuth subcarbonate (Bismuth Carbonate Oxide)] 0.962
CCCCCOC(=O)Nc1nc(=O)n([C@@H]2O[C@H](C)[C@@H](O)[C@H]2O)cc1F [Capecitabine] 1.33
Cc1ncc(COP(=O)(O)O)c(C=O)c1O [Pyridoxal-5-phosphate] 0.951
CCC1NC(=O)c2cc(S(N)(=O)=O)c(Cl)cc2N1 (stereo not drawn) [Quinethazone] 1.21
CC(O)(P(=O)(O)O)P(=O)(O)O [Etidronate disodium] 0.756
CC(O)(P(=O)(O)O)P(=O)(O)O [Etidronic acid (1-hydroxyethane-1,1-diphosphonic acid)] 0.814
Cc1cnc(C(=O)NCCc2ccc(S(=O)(=O)NC(=O)NC3CCCCC3)cc2)cn1 [Glipizide] 1.02
CC(C)NCC1CCc2cc(CO)c([N+](=O)[O-])cc2N1 (stereo not drawn) [Oxamniquine] 1.14
O=C1[C@H](CC[C@H](O)c2ccc(F)cc2)[C@@H](c2ccc(O)cc2)N1c1ccc(F)cc1 [Ezetimibe] 0.86
Cc1ccccc1CNc1ncnc2c1ncn2[C@@H]1O[C@H](CO)[C@@H](O)[C@H]1O [Metrifudil] 0.972
CN1CCN(c2c(F)cc3c(=O)c(C(=O)O)cn4c3c2SCC4)CC1 [Rufloxacin HCl] 0.886
CCCC(=O)[O-].[Na+] [Sodium butyrate (N-butyric acid)] 1.01
COC(=O)C1=C(C)NC(C)=C(C(=O)OCC(C)C)C1c1ccccc1[N+](=O)[O-] (stereo not drawn) [Nisoldipine] 0.556
CN(C)CCOC(c1ccc(Cl)cc1)c1ccccn1 (stereo not drawn) [Carbinoxamine] 1.21
CCCCCCCCCCCCCC(=O)O [Myristic acid] 1.03
O=C1C(O)=C([C@H]2CC[C@H](c3ccc(Cl)cc3)CC2)C(=O)c2ccccc21 [Atovaquone] 1.33
Cc1ccccc1C(OCCN(C)C)c1ccccc1 (stereo not drawn) [Orphenadrine citrate] 1.36
CC[N+](CC)(CC)CCOc1cccc(OCC[N+](CC)(CC)CC)c1OCC[N+](CC)(CC)CC [Gallamine triethiodide] 1.15
NCc1ccc(S(N)(=O)=O)cc1 [Mafenide (p-aminomethylbenzenesulfonamide)] 0.912
CCc1oc2ccccc2c1C(=O)c1cc(Br)c(O)c(Br)c1 [Benzbromarone] 0.991
CC/C(=C(\c1ccccc1)c1ccc(OCCN(C)C)cc1)c1ccccc1 [Tamoxifen] 1.07
CC(=O)Nc1ccc(C(=O)O)cc1 [Acedoben (4-Acetamidobenzoic acid)] 1.03
CCOc1ccc(NC(C)=O)cc1 [Phenacetin (acetophenetidin)] 1.24
CN1CCC[C@@H]1CCO[C@](C)(c1ccccc1)c1ccc(Cl)cc1 [Clemastine] 1.12
CO[Si](C)(C)O[Si](C)(C)C.O=[Si]=O [Simethicone (40mg/0.6mL)] 1.21
NC(Cc1c[nH]c2ccc(O)cc12)C(=O)O (racemic) [5-hydroxy-DL-Tryptophan] 0.953
COc1ccc(C(=O)c2ccccc2O)c(O)c1 [Dioxybenzone (2,2'-Dihydroxy-4-methoxybenzophenone)] 0.985
COc1ccc(CN2CCN(C(c3ccc(F)cc3)c3ccc(F)cc3)CC2)c(OC)c1OC [Lomerizine HCl] 1.15
CC(C)Cc1ccc(C(C)C(=O)O)cc1 (stereo not drawn) [Ibuprofen] 0.932
C[N+](C)([O-])CCCN1c2ccccc2CCc2ccccc21 [Imipraminoxide (Imipramine n-oxide)] 1.03
N.N.O=P(O)(O)O [Ammonium phosphate dibasic] 0.953
CC1=C(C/C=C(\C)CCC[C@H](C)CCC[C@H](C)CCCC(C)C)C(=O)c2ccccc2C1=O [Vitamin K1 (Phylloquinone, phytonadione)] 0.865

Copied from the listing (two entries):
cell-surface Lgr5 expression, inactive:
CO[Si](C)(C)O[Si](C)(C)C.O=[Si]=O [Simethicone (40mg/0.6mL)] 1.21
NC(Cc1c[nH]c2ccc(O)cc12)C(=O)O (racemic) [5-hydroxy-DL-Tryptophan] 0.953
